Results reported in the supplement of paper PMC10077471.
Over roughly 1,900 compounds, “excess over highest single agent (ExcessHSA) synergy score, 6x6 matrix” has its median near -83; the lowest 2% begin near -370. This is one part of the list.

Each compound was assayed on NCI-H446 (assay: excess over highest single agent (ExcessHSA) synergy score, 6x6 matrix; higher = less synergy (more negative = stronger synergy)). Settings: 72 h; CellTiter-Glo viability.

Compound	excess over highest single agent
CCNC(=O)c1cc2c(-c3cc(OCCN4CCCC4)c(Cl)cc3Cl)nc(N)nc2s1 + Cc1sc2c(c1C)C(c1ccc(Cl)cc1)=N[C@@H](CC(=O)OC(C)(C)C)c1nnc(C)n1-2 [NCGC00250412-19]	-89.1
CC(C)n1cnc2c(NCCc3ccc(O)cc3)nc(-c3csc4ccccc34)nc21 + Cc1sc2c(c1C)C(c1ccc(Cl)cc1)=N[C@@H](CC(=O)OC(C)(C)C)c1nnc(C)n1-2 [NCGC00250412-19]	-111
O=C(CN1C(=O)C2(CCCC2)NC[C@H]1c1cc(F)cc(F)c1)Nc1ccc2c(c1)C[C@@]1(C2)C(=O)Nc2ncccc21 + Cc1sc2c(c1C)C(c1ccc(Cl)cc1)=N[C@@H](CC(=O)OC(C)(C)C)c1nnc(C)n1-2 [NCGC00250412-19]	-59.7
COc1ccc2c3c1O[C@H]1C[C@@H](O)C=C[C@@]31CCN(C)C2 + Cc1sc2c(c1C)C(c1ccc(Cl)cc1)=N[C@@H](CC(=O)OC(C)(C)C)c1nnc(C)n1-2 [NCGC00250412-19]	-60.7
O=c1[nH]c(=O)n([C@H]2C[C@H](O)[C@@H](CO)O2)cc1C(F)(F)F + Cc1sc2c(c1C)C(c1ccc(Cl)cc1)=N[C@@H](CC(=O)OC(C)(C)C)c1nnc(C)n1-2 [NCGC00250412-19]	-189
Cn1cncc1[C@@](N)(c1ccc(Cl)cc1)c1ccc2c(c1)c(-c1cccc(Cl)c1)cc(=O)n2C + Cc1sc2c(c1C)C(c1ccc(Cl)cc1)=N[C@@H](CC(=O)OC(C)(C)C)c1nnc(C)n1-2 [NCGC00250412-19]	-335
CON(C)C(=O)N1N=C(c2cc(F)ccc2F)S[C@@]1(CCCN)c1ccccc1 + Cc1sc2c(c1C)C(c1ccc(Cl)cc1)=N[C@@H](CC(=O)OC(C)(C)C)c1nnc(C)n1-2 [NCGC00250412-19]	-262
NC(=O)N1c2ccccc2CC(=O)c2ccccc21 + Cc1sc2c(c1C)C(c1ccc(Cl)cc1)=N[C@@H](CC(=O)OC(C)(C)C)c1nnc(C)n1-2 [NCGC00250412-19]	-88.6
Oc1nc(-c2ccc(C(F)(F)F)cc2)nc2c1CSCC2 + Cc1sc2c(c1C)C(c1ccc(Cl)cc1)=N[C@@H](CC(=O)OC(C)(C)C)c1nnc(C)n1-2 [NCGC00250412-19]	9.55
Cc1cnc(Nc2ccc(CN3CCOCC3)cc2)nc1Nc1cccc(S(=O)(=O)NC(C)(C)C)c1 + Cc1sc2c(c1C)C(c1ccc(Cl)cc1)=N[C@@H](CC(=O)OC(C)(C)C)c1nnc(C)n1-2 [NCGC00250412-19]	52
C[C@]12O[C@H](C[C@]1(O)CO)n1c3ccccc3c3c4c(c5c6ccccc6n2c5c31)CNC4=O + Cc1sc2c(c1C)C(c1ccc(Cl)cc1)=N[C@@H](CC(=O)OC(C)(C)C)c1nnc(C)n1-2 [NCGC00250412-19]	-297
CC(C)Cn1cnc2c(N)nc3ccccc3c21 + Cc1sc2c(c1C)C(c1ccc(Cl)cc1)=N[C@@H](CC(=O)OC(C)(C)C)c1nnc(C)n1-2 [NCGC00250412-19]	-18.3
CN(C)c1ccc(-c2nc3ncc(Cl)c(N4CCN(CC(=O)Nc5nccs5)CC4)c3[nH]2)cc1 + Cc1sc2c(c1C)C(c1ccc(Cl)cc1)=N[C@@H](CC(=O)OC(C)(C)C)c1nnc(C)n1-2 [NCGC00250412-19]	-382
O=C1CCCC2=C1C(c1[nH]ncc1Cl)N=C(Nc1nc3ccccc3o1)N2 (stereo not drawn) + Cc1sc2c(c1C)C(c1ccc(Cl)cc1)=N[C@@H](CC(=O)OC(C)(C)C)c1nnc(C)n1-2 [NCGC00250412-19]	-160
CC(C)(C)c1cc(C(=O)O)c(NC(=O)Nc2ccc3[nH]ncc3c2)s1 + Cc1sc2c(c1C)C(c1ccc(Cl)cc1)=N[C@@H](CC(=O)OC(C)(C)C)c1nnc(C)n1-2 [NCGC00250412-19]	46.3
CC(C)n1cnc2c(NCCCCCCNC(=O)OC(C)(C)C)nc(NCCO)nc21 + Cc1sc2c(c1C)C(c1ccc(Cl)cc1)=N[C@@H](CC(=O)OC(C)(C)C)c1nnc(C)n1-2 [NCGC00250412-19]	-65.3
CCCCN1CCC(CNC(=O)c2c3n(c4ccccc24)CCCO3)CC1 + Cc1sc2c(c1C)C(c1ccc(Cl)cc1)=N[C@@H](CC(=O)OC(C)(C)C)c1nnc(C)n1-2 [NCGC00250412-19]	-45
COc1cc(NS(=O)(=O)c2ccc(N)cc2)nc(OC)n1 + Cc1sc2c(c1C)C(c1ccc(Cl)cc1)=N[C@@H](CC(=O)OC(C)(C)C)c1nnc(C)n1-2 [NCGC00250412-19]	-57.6
Cc1cccc(Nc2ccncc2S(=O)(=O)NC(=O)NC(C)C)c1 + Cc1sc2c(c1C)C(c1ccc(Cl)cc1)=N[C@@H](CC(=O)OC(C)(C)C)c1nnc(C)n1-2 [NCGC00250412-19]	-155

Some of the entries so far, bar-delimited.
Compound | excess over highest single agent
O=c1[nH]c(=O)n([C@H]2C[C@H](O)[C@@H](CO)O2)cc1C(F)(F)F + Cc1sc2c(c1C)C(c1ccc(Cl)cc1)=N[C@@H](CC(=O)OC(C)(C)C)c1nnc(C)n1-2 [NCGC00250412-19] | -189
Cn1cncc1[C@@](N)(c1ccc(Cl)cc1)c1ccc2c(c1)c(-c1cccc(Cl)c1)cc(=O)n2C + Cc1sc2c(c1C)C(c1ccc(Cl)cc1)=N[C@@H](CC(=O)OC(C)(C)C)c1nnc(C)n1-2 [NCGC00250412-19] | -335
CON(C)C(=O)N1N=C(c2cc(F)ccc2F)S[C@@]1(CCCN)c1ccccc1 + Cc1sc2c(c1C)C(c1ccc(Cl)cc1)=N[C@@H](CC(=O)OC(C)(C)C)c1nnc(C)n1-2 [NCGC00250412-19] | -262
NC(=O)N1c2ccccc2CC(=O)c2ccccc21 + Cc1sc2c(c1C)C(c1ccc(Cl)cc1)=N[C@@H](CC(=O)OC(C)(C)C)c1nnc(C)n1-2 [NCGC00250412-19] | -88.6
Oc1nc(-c2ccc(C(F)(F)F)cc2)nc2c1CSCC2 + Cc1sc2c(c1C)C(c1ccc(Cl)cc1)=N[C@@H](CC(=O)OC(C)(C)C)c1nnc(C)n1-2 [NCGC00250412-19] | 9.55
Cc1cnc(Nc2ccc(CN3CCOCC3)cc2)nc1Nc1cccc(S(=O)(=O)NC(C)(C)C)c1 + Cc1sc2c(c1C)C(c1ccc(Cl)cc1)=N[C@@H](CC(=O)OC(C)(C)C)c1nnc(C)n1-2 [NCGC00250412-19] | 52
C[C@]12O[C@H](C[C@]1(O)CO)n1c3ccccc3c3c4c(c5c6ccccc6n2c5c31)CNC4=O + Cc1sc2c(c1C)C(c1ccc(Cl)cc1)=N[C@@H](CC(=O)OC(C)(C)C)c1nnc(C)n1-2 [NCGC00250412-19] | -297
CC(C)Cn1cnc2c(N)nc3ccccc3c21 + Cc1sc2c(c1C)C(c1ccc(Cl)cc1)=N[C@@H](CC(=O)OC(C)(C)C)c1nnc(C)n1-2 [NCGC00250412-19] | -18.3
CN(C)c1ccc(-c2nc3ncc(Cl)c(N4CCN(CC(=O)Nc5nccs5)CC4)c3[nH]2)cc1 + Cc1sc2c(c1C)C(c1ccc(Cl)cc1)=N[C@@H](CC(=O)OC(C)(C)C)c1nnc(C)n1-2 [NCGC00250412-19] | -382

Additional records:

Compound	excess over highest single agent
O=C(c1ccc(F)cc1)N1CCC[C@H](c2nc(-c3ccc(F)cc3)no2)C1 + Cc1sc2c(c1C)C(c1ccc(Cl)cc1)=N[C@@H](CC(=O)OC(C)(C)C)c1nnc(C)n1-2 [NCGC00250412-19]	-46.8
N#C[C@H](O[C@@H]1O[C@H](CO[C@@H]2O[C@H](CO)[C@@H](O)[C@H](O)[C@H]2O)[C@@H](O)[C@H](O)[C@H]1O)c1ccccc1 + Cc1sc2c(c1C)C(c1ccc(Cl)cc1)=N[C@@H](CC(=O)OC(C)(C)C)c1nnc(C)n1-2 [NCGC00250412-19]	-35.5
CNC(=O)c1ccc(N2C(=S)N(c3cnc(C#N)c(C(F)(F)F)c3)C(=O)C23CCC3)cc1F + Cc1sc2c(c1C)C(c1ccc(Cl)cc1)=N[C@@H](CC(=O)OC(C)(C)C)c1nnc(C)n1-2 [NCGC00250412-19]	-9.84
O=C1c2ccccc2-c2n[nH]c3cccc1c23 + Cc1sc2c(c1C)C(c1ccc(Cl)cc1)=N[C@@H](CC(=O)OC(C)(C)C)c1nnc(C)n1-2 [NCGC00250412-19]	-138
O=C(c1ccc(OCCN2CCCCC2)cc1)c1c(-c2ccc(O)cc2)sc2cc(O)ccc12 + Cc1sc2c(c1C)C(c1ccc(Cl)cc1)=N[C@@H](CC(=O)OC(C)(C)C)c1nnc(C)n1-2 [NCGC00250412-19]	-84.2
CO[C@@H]1[C@H](N(C)C(=O)c2ccccc2)C[C@H]2O[C@]1(C)n1c3ccccc3c3c4c(c5c6ccccc6n2c5c31)C(=O)NC4=O + Cc1sc2c(c1C)C(c1ccc(Cl)cc1)=N[C@@H](CC(=O)OC(C)(C)C)c1nnc(C)n1-2 [NCGC00250412-19]	-113
COc1ccc(CC2SC(=O)NC2=O)cc1C(=O)NCc1ccc(C(F)(F)F)cc1 (stereo not drawn) + Cc1sc2c(c1C)C(c1ccc(Cl)cc1)=N[C@@H](CC(=O)OC(C)(C)C)c1nnc(C)n1-2 [NCGC00250412-19]	97.6
CCOc1cc(N2CCC(O)CC2)ccc1Nc1ncc2c(n1)N(C)c1ccccc1C(=O)N2C + Cc1sc2c(c1C)C(c1ccc(Cl)cc1)=N[C@@H](CC(=O)OC(C)(C)C)c1nnc(C)n1-2 [NCGC00250412-19]	136
Cc1ccc(NC(=O)Nc2cc(C(F)(F)F)ccc2F)cc1Nc1ccc2c(c1)NC(=O)/C2=C\c1ccc[nH]1 + Cc1sc2c(c1C)C(c1ccc(Cl)cc1)=N[C@@H](CC(=O)OC(C)(C)C)c1nnc(C)n1-2 [NCGC00250412-19]	-97.6
CNC(=O)c1ccccc1Sc1ccc2c(/C=C/c3ccccn3)n[nH]c2c1 + Cc1sc2c(c1C)C(c1ccc(Cl)cc1)=N[C@@H](CC(=O)OC(C)(C)C)c1nnc(C)n1-2 [NCGC00250412-19]	-194
C[C@]12CC[C@H](O)CC1=CC[C@@H]1[C@@H]2CC[C@]2(C)C(=O)CC[C@@H]12 + Cc1sc2c(c1C)C(c1ccc(Cl)cc1)=N[C@@H](CC(=O)OC(C)(C)C)c1nnc(C)n1-2 [NCGC00250412-19]	-70.9
CCn1cc(C(=O)O)c(=O)c2cc(F)c(N3CCNCC3)cc21 + Cc1sc2c(c1C)C(c1ccc(Cl)cc1)=N[C@@H](CC(=O)OC(C)(C)C)c1nnc(C)n1-2 [NCGC00250412-19]	-156
COc1ccc(C(C)=O)c(O)c1 + Cc1sc2c(c1C)C(c1ccc(Cl)cc1)=N[C@@H](CC(=O)OC(C)(C)C)c1nnc(C)n1-2 [NCGC00250412-19]	-66.4
COc1ccc(-n2nc(C(N)=O)c3c2C(=O)N(c2ccc(N4CCCCC4=O)cc2)CC3)cc1 + Cc1sc2c(c1C)C(c1ccc(Cl)cc1)=N[C@@H](CC(=O)OC(C)(C)C)c1nnc(C)n1-2 [NCGC00250412-19]	97.6
COc1c(O)cc2c(c1O)[C@@H]1O[C@H](CO)[C@@H](O)[C@H](O)[C@H]1OC2=O + Cc1sc2c(c1C)C(c1ccc(Cl)cc1)=N[C@@H](CC(=O)OC(C)(C)C)c1nnc(C)n1-2 [NCGC00250412-19]	-61.3
Nc1cccc(-c2cc3c(Oc4cccc(O)c4)ncnc3[nH]2)c1 + Cc1sc2c(c1C)C(c1ccc(Cl)cc1)=N[C@@H](CC(=O)OC(C)(C)C)c1nnc(C)n1-2 [NCGC00250412-19]	30.5
CC1C=CC=CCCC=CC=CC=CC=CC(OC2OC(C)C(O)C(N)C2O)CC2OC(O)(CC(O)C(O)CCC(O)CC(O)CC(O)CC(=O)OC(C)C(C)C1O)CC(O)C2C(=O)O (stereo not drawn) + Cc1sc2c(c1C)C(c1ccc(Cl)cc1)=N[C@@H](CC(=O)OC(C)(C)C)c1nnc(C)n1-2 [NCGC00250412-19]	20.1
COc1ccccc1OCCNCC(O)COc1cccc2[nH]c3ccccc3c12 (stereo not drawn) + Cc1sc2c(c1C)C(c1ccc(Cl)cc1)=N[C@@H](CC(=O)OC(C)(C)C)c1nnc(C)n1-2 [NCGC00250412-19]	-202
CCC(CC)[C@H](NC(C)=O)[C@@H]1[C@H](O)[C@@H](C(=O)O)C[C@H]1NC(=N)N + Cc1sc2c(c1C)C(c1ccc(Cl)cc1)=N[C@@H](CC(=O)OC(C)(C)C)c1nnc(C)n1-2 [NCGC00250412-19]	-71.5
